In PubChem BioAssay AID445 (National Center for Advancing Translational Sciences (NCATS), 2006) one finds AC50 data, which are given here for 40 molecules.

Molecules are shown by their SMILES. The list shows a part of the results. Further columns of the screen follow, without active or inactive calls. Most of these compounds were active or inconclusive in the main read-out, so they are no random draw. The note in brackets gives the kind of curve behind each potency; many fits are weak.

A short description of the assay: IkB Signaling. The following applies: ABC-DLBCL IkBa-CBG/CBR dual luciferase ratio (green luciferase fused to IkBa over red control in OCI-Ly3 lymphoma cells), 4 h; measured here: control luc red channel unless noted. The gist of the method: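 In this assay, an IκBα–CBG68 fusion accumulates when IKK-driven degradation is blocked; native CBR normalizes for cell number. OCI-Ly3 cells were treated 4 h with compound and doxycycline, then green and red light read after Chroma-Glo addition.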
Turning to `COc1ccc(C2CC(=O)N(CC(=O)Nc3ccc(C(F)(F)F)cc3)c3ccccc3S2)cc1` (stereo not given), the concentration at half-maximal activity (AC50) is 3.98 µM [falling, partial curve].
To `CN(Cc1ccccc1)c1nc2c(c(=O)n(C)c(=O)n2C)n1CCCc1ccccc1` belongs 25.1 µM [falling, partial curve].
To `COC(=O)c1ccc(OC)c(Cn2c(=O)n(-c3ccc(C)cc3)c(=O)c3c2cnn3C)c1` belongs 15.8 µM [falling, partial curve]; to `COc1ccc(C(=O)Nc2ccc3nc(SCC(=O)N4CCOCC4)sc3c2)cc1`, 6.31 µM [falling, partial curve]; to `CCOC(=O)C1=C(CNCCc2ccc(Cl)cc2)NC(=O)NC1c1ccc2c(c1)OCO2` (stereo not given), 25.1 µM [falling, single point].
Consider `O=C(Cn1c(=O)nc(-c2ccccc2)c2cc(Cl)ccc21)NCCCc1ccccc1`, for which the half-maximal activity concentration (AC50) is 15.8 µM [falling, partial curve].
In the case of `COc1cc2nc(N3CCN(C(=O)[C@H]4COc5ccccc5O4)CC3)nc(N)c2cc1OC` it was 39.8 µM [falling, partial curve, poor fit] [measured here: IkB-luc green channel].
To `COc1cccc(CNC(=O)c2c3c(nc4ccccc24)C(=O)N(C2CCCCC2)C3)c1` belongs 25.1 µM [falling, partial curve]; to `COc1ccc(-c2nc(SCC(=O)N3CCC(C)CC3)n[nH]2)cc1`, 39.8 µM [falling, single point].
Turning to `Cc1ccc(Cl)cc1NC(=O)/C(C#N)=C\c1cn(Cc2ccc(F)cc2)c2ccccc12`, the AC50 was 0.631 µM [falling, full curve, poor fit].
To `Fc1ccc(CNc2cc(-c3ccccc3)nc3nncn23)cc1` belongs 20 µM [falling, partial curve]; to `Cc1ccccc1C(=O)Nc1ccc2nc(SCCOc3ccccc3)sc2c1`, 0.794 µM [falling, partial curve]; to `CCOC(=O)c1c(S(=O)(=O)NCC(=O)NCc2ccc(C)cc2)c(C)n(C)c1C`, 0.0158 µM [falling, full curve, poor fit].
To `O=C(NCc1ccc(F)cc1)c1cc2c(s1)-c1ccccc1SC2` belongs 12.6 µM [falling, partial curve]; to `O=C(CCCn1c(=O)c2ccccc2n(CC(=O)Nc2ccc(F)cc2F)c1=O)NCc1ccccc1Cl`, 12.6 µM [falling, partial curve]; to `CCOc1ncccc1C(=O)OCc1cc(=O)oc2c(C)c(C)ccc12`, 0.0794 µM [falling, full curve].
To `CCCCOC(=O)c1ccc(NC(=O)/C(C#N)=C/c2ccc(-c3ccccc3)o2)cc1` belongs 0.398 µM [falling, full curve].
Regarding `COc1ccc(S(=O)(=O)c2ccc(OC)c(OC)c2)cc1OC`, the concentration at half-maximal activity (AC50) was 15.8 µM [rising, partial curve].
In the case of `CN(C)c1ccc(CNC(=O)C(Cc2ccccc2)NS(=O)(=O)c2ccc3c(c2)oc(=O)n3C)cc1` (stereo not given) it was 25.1 µM [falling, single point]; in that of `O=S(=O)(CC(CN1CCCC1)N1CCCC1)c1ccc2ccccc2c1` (stereo not given), 0.398 µM [falling, full curve]; in that of `Cc1ccc(S(=O)(=O)Nc2cccc(-c3cn4ccsc4n3)c2)cc1`, 12.6 µM [falling, partial curve].
In the case of `CN1C(=O)c2ccccc2Sc2ccc(NC(=O)COc3ccc(Cl)cc3)cc21` it was 20 µM [falling, partial curve]; in that of `Cc1ccnc2ccc(-c3nc4ccccc4o3)cc12`, 25.1 µM [falling, single point]; in that of `COc1ccc(-n2c(Cc3cccn3C)nnc2SCC(=O)Nc2cc(Cl)ccc2OC)cc1`, 6.31 µM [falling, partial curve].
With `CCn1c(NC(=O)Nc2ccccc2OC)nc2ccccc21`, the AC50 was 0.398 µM [falling, full curve].
To `COc1cccc(C2Nc3ccccc3-c3nnc(SCc4ccccc4)nc3O2)c1OC` (stereo not given) belongs 12.6 µM [falling, partial curve].
In the case of `Cc1ccc(S(=O)(=O)c2nc(-c3ccccc3)oc2SCC(=O)NC2CCCCC2)cc1`, the AC50 is 15.8 µM [falling, partial curve].
For the molecule `O=C(Nc1ccc(F)c(Cl)c1)C1CCCN1S(=O)(=O)c1ccc(F)cc1` (stereo not given), the concentration at half-maximal activity (AC50) was 20 µM [falling, single point].
In the case of `c1csc(-c2nnsc2-c2nc3ccccc3[nH]2)c1` it was 12.6 µM [falling, partial curve]; in that of `O=C(c1cc(-c2cccs2)on1)N1CCc2ccccc2C1`, 7.94 µM [falling, partial curve]; in that of `Cc1cc(-c2nc3ccccc3s2)ccc1NC(=O)c1cc(Cl)ccc1Cl`, 0.126 µM [rising, full curve].
In the case of `CCc1ccc(N2C(=O)CS(=O)(=O)C23C(=O)N(Cc2ccccc2F)c2ccccc23)cc1` (stereo not given) it was 12.6 µM [falling, partial curve].
In the case of `CCOc1cc(C2c3c(oc4ccccc4c3=O)C(=O)N2Cc2ccccc2Cl)ccc1O` (stereo not given) it was 7.94 µM [falling, single point]; in that of `O=C(N/N=C\c1ccc2c(c1)CCC2)c1ccccc1O`, 2 µM [falling, partial curve].
In the case of `Cc1ccc(Nc2ncnc3nc[nH]c23)cc1Cl`, the AC50 was 12.6 µM [falling, partial curve].
In the case of `COc1ccc(C2CC(=O)c3c([nH]c(C(=O)OCCOc4ccccc4)c3C)C2)cc1OC` (stereo not given) it was 12.6 µM [rising, partial curve]; in that of `Cc1cc(NC(=O)Nc2ccc(N(C)C)cc2)c2cc(F)cc(F)c2n1`, 3.16 µM [falling, full curve]; in that of `Cc1cc(NC(=O)CN2C(=O)CSc3ccc(S(=O)(=O)N(C)C)cc32)ccc1Br`, 10 µM [falling, partial curve].
In the case of `CC(C)CC(/C(O)=C(\C#N)c1nc2ccccc2[nH]1)N1C(=O)c2ccccc2C1=O` (stereo not given) it was 10 µM [falling, partial curve]; in that of `CSc1ccc(CCNC(=O)c2ccc3c(c2)nc2n3CCOC2)cc1`, 20 µM [falling, single point].

The AC50 is the midpoint of the concentration-response curve, whichever way the signal moves.
